“And” between values parts separate entries of the source, which are not always exact repeats. Identical values can stand only once. Some of the results follow. The main result of the screen is listed elsewhere. These columns were measured beside it and carry no call. Compounds called inactive in the main read-out are mostly missing here. The note in brackets gives the kind of curve behind each potency; many fits are weak.
Assay: qHTS Assay for Modulators of Lamin A Splicing
Settings: HeLa LMNA splicing GFP/RFP minigene ratio, 48 h
How it was run: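 S3 HeLa stable clones carrying a lamin A-EGFP splicing minigene plus DsRed2 were seeded at 600 cells/well in Opti-MEM with 2% FBS, pin-dosed and incubated 48 h at 37°C. Acumen cytometry (488 nm) gave the GFP/RFP total-intensity ratio.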

[1] = measured here: RFP viability control channel
[2] = measured here: GFP splicing reporter channel

With `CC1CCCN(C(=O)CCl)C1` (configuration not stated) the AC50 [1] was 0.316 µM [rising, partial curve, poor fit].

With `CN(C)C(=O)Oc1ccnc2cc(Cl)ccc12` the AC50 [1] was 35.5 µM [rising, single point].

With `CC[n+]1c(/C=C/N(C)c2ccccc2)sc2ccc(Cl)cc21` the AC50 [2] was 3.98 µM [rising, single point].

In the case of `COc1ccc(C)cc1NC(=O)CN1CCN(CC(=O)Nc2ccccc2F)CC1`, the AC50 [1] is reported as 20 µM [rising, single point].

For `CCN(CC)c1ccc(C=C2C(=O)NC(=S)NC2=O)cc1`, the AC50 [2] was 20 µM [falling, single point] and the AC50 [1] was 31.6 µM [falling, partial curve].

In the case of `CCc1ccc(OCC(=O)N2CCN(CCc3ccccn3)CC2)cc1`, the AC50 [2] is reported as 0.794 µM [falling, single point].

In the case of `NC(CP(=O)(O)O)C(=O)O` (configuration not stated), the AC50 [2] is reported as 39.8 µM [falling, partial curve, poor fit] and the AC50 [1] is reported as 0.00631 µM [falling, full curve, poor fit].

For `CN1CCc2cc(O)cc3c2C1Cc1ccc(O)c(O)c1-3` (configuration not stated), the AC50 [2] was 17.8 µM [falling, partial curve] and the AC50 [1] was 11.2 µM [falling, partial curve].

For `CN1CCN(C(=O)O[C@H]2c3nccnc3C(=O)N2c2ccc(Cl)cn2)CC1`, the AC50 [2] was 35.5 µM [falling, single point].

In the case of `Cc1cccc(-n2c(-c3cccs3)nc3ccccc3c2=O)c1`, the AC50 [1] is reported as 35.5 µM [rising, single point].

With `CC(=O)N1CCN(c2ccc([N+](=O)[O-])cc2C=C2C(=O)NC(=O)NC2=O)CC1` the AC50 [1] was 14.1 µM [rising, single point].

In the case of `COc1cc2c(cc1O)CC[n+]1cc3c(OC)c(OC)ccc3cc1-2`, the AC50 [1] is reported as 11.2 µM [rising, partial curve, poor fit].

For `O=C1Nc2ccc(Cl)cc2C(c2ccccc2Cl)=NC1O` (configuration not stated), the AC50 [2] was 12.6 µM [rising, partial curve, poor fit] and the AC50 [1] was 28.2 µM [rising, single point].

With `CCC(=Nc1ccc2c(c1)CCC2)c1c(O)n(C)c(=O)n(C)c1=O` the AC50 [1] was 3.98 µM [rising, partial curve].

In the case of `CCC(=O)c1ccc(OC(=O)N(C)c2ccccc2)cc1`, the AC50 [2] is reported as 0.0224 µM [rising, full curve, poor fit].

In the case of `CCC(=NCc1cc(OC)cc(OC)c1)c1c(O)n(C)c(=O)n(C)c1=O`, the AC50 [1] is reported as 2.51 µM [rising, full curve, poor fit].

With `COc1ccc2c(c1O)-c1c(OC)c(OC)cc3c1[C@H](C2)N(C)CC3` the AC50 [2] was 0.251 µM [falling, full curve, poor fit].

In the case of `NCC(CC(=O)O)c1ccc(Cl)cc1` (configuration not stated), the AC50 [2] is reported as 0.501 µM [rising, full curve, poor fit] and the AC50 [1] is reported as 6.31 µM [falling, partial curve, poor fit].

In the case of `O=C1OC(c2ccc(O)c(S(=O)(=O)O)c2)(c2ccc(O)c(S(=O)(=O)O)c2)c2c(Br)c(Br)c(Br)c(Br)c21`, the AC50 [2] is reported as 10 µM [falling, partial curve, poor fit].

With `CN(c1ccccc1)S(=O)(=O)c1cccc(C(=O)N2CCN(c3ccccn3)CC2)c1` the AC50 [2] was 14.1 µM [rising, single point] and the AC50 [1] was 22.4 µM [rising, single point].

In the case of `Clc1ccc2c(c1)CCc1cccnc1C2=C1CCNCC1`, the AC50 [2] is reported as 7.08 µM [falling, partial curve] and 11.2 µM [falling, single point] and the AC50 [1] is reported as 3.16 µM [falling, full curve] and 11.2 µM [falling, partial curve, poor fit].

For `CC(C)[C@]12O[C@H]1[C@@H]1O[C@]13[C@]1(O[C@H]1C[C@H]1C4=C(CC[C@@]13C)C(=O)OC4)[C@@H]2O`, the AC50 [2] was 0.00631 µM [falling, full curve, poor fit] and the AC50 [1] was 0.0891 µM [falling, full curve].

In the case of `O=c1cccc2n1CC1CNC[C@H]2C1`, the AC50 [2] is reported as 1 µM [falling, partial curve, poor fit] and the AC50 [1] is reported as 0.0631 µM [falling, single point].

With `Cc1cc(N2C(=O)C3CCCN3C2c2sccc2C)no1` (configuration not stated) the AC50 [2] was 2.51 µM [falling, full curve, poor fit] and the AC50 [1] was 2.24 µM [falling, full curve, poor fit].

In the case of `CCOc1ccc(Br)c(C2(O)CC(C)N(C)CC2C)c1` (configuration not stated), the AC50 [2] is reported as 35.5 µM [rising, single point].

For `O=C(Nc1ccc2c(c1)OCO2)c1cccn(Cc2ccc(F)cc2)c1=O`, the AC50 [2] was 0.178 µM [falling, full curve, poor fit] and the AC50 [1] was 0.001 µM [falling, full curve, poor fit].

For `CCC(CC)C1C(C#N)=C(N)Oc2c1c(=O)oc1ccccc21` (configuration not stated), the AC50 [1] was 11.2 µM [rising, partial curve, poor fit].

In the case of `Cc1cccc(NC(=O)c2cccc(NS(=O)(=O)c3ccc(Cl)cc3)c2)c1`, the AC50 [1] is reported as 17.8 µM [rising, single point].

For `C[Se]C[C@H](N)C(=O)O`, the AC50 [2] was 10 µM [falling, partial curve, poor fit] and the AC50 [1] was 5.01 µM [rising, partial curve].

For `CC(N)Cc1ccc(O)cc1` (configuration not stated), the AC50 [2] was 35.5 µM [falling, single point].

For `CN1C(=O)CN=C(c2ccc(Cl)cc2)c2cc(Cl)ccc21`, the AC50 [2] was 8.91 µM [rising, partial curve, poor fit] and the AC50 [1] was 7.94 µM [rising, partial curve, poor fit].

With `O=c1[nH]c(O)c(C=NC2CCN(Cc3ccccc3)CC2)c(=O)[nH]1` the AC50 [2] was 15.8 µM [rising, partial curve, poor fit] and the AC50 [1] was 22.4 µM [rising, single point].

For `NCC1(c2ccc3c(c2)OCCO3)CCCC1`, the AC50 [2] was 39.8 µM [falling, partial curve, poor fit] and the AC50 [1] was 10 µM [falling, partial curve, poor fit].

In the case of `CC(C)N1C(=O)CCC1C(=O)N1CCC2(CC1)OCCO2` (configuration not stated), the AC50 [2] is reported as 0.398 µM [falling, single point].

For `CC(=O)[C@@]1(O)CC[C@H]2[C@@H]3CCC4=CC(=O)CC[C@]4(C)[C@H]3CC[C@@]21C`, the AC50 [1] was 25.1 µM [rising, single point].

For `Cc1sc2c(c1C)C(c1ccc(C(C)(C)C)cc1)=NCC(=O)N2CC(=O)Nc1nccs1`, the AC50 [2] was 20 µM [falling, partial curve] and the AC50 [1] was 22.4 µM [falling, partial curve].

With `O=C(Oc1ccc2ccccc2c1Cl)N1CCCC1` the AC50 [1] was 7.08 µM [rising, partial curve].

In the case of `CC1(C)OC(c2ccccc2)=C/C(=C/C=C2C(=O)NC(=O)NC2=O)O1`, the AC50 [2] is reported as 3.98 µM [rising, single point].

For `N#CC(C#N)=Cc1ccc(-c2ccccc2)o1`, the AC50 [1] was 17.8 µM [rising, partial curve].

With `CCOc1ccc(CC2(CCc3ccncc3)C(=O)NC(=O)NC2=O)cc1` the AC50 [1] was 0.794 µM [falling, full curve, poor fit].

With `CC(NC(C)(C)C)C(=O)c1cccc(Cl)c1` (configuration not stated) the AC50 [2] was 3.16 µM [rising, partial curve, poor fit].

In the case of `O=C(C(=O)N1CC=C(c2ccccc2)CC1)c1c[nH]c2ccccc12`, the AC50 [1] is reported as 0.224 µM [rising, full curve, poor fit].

In the case of `O=C(COc1ccccc1Cl)Nc1ccc2nc(SCC(=O)N3CCCC3)sc2c1`, the AC50 [1] is reported as 35.5 µM [falling, single point].

For `COc1c(C)cc(C(=O)C2CCCN(Cc3cccc(C)n3)C2)cc1C` (configuration not stated), the AC50 [2] was 1.58 µM [falling, full curve, poor fit] and the AC50 [1] was 1.12 µM [falling, full curve].

With `Cc1nccn1Cc1ccc(Cl)nc1` the AC50 [2] was 0.126 µM [falling, partial curve, poor fit] and the AC50 [1] was 0.112 µM [falling, partial curve, poor fit].

For `O=C(O)C(Cl)Cl`, the AC50 [2] was 35.5 µM [falling, single point] and the AC50 [1] was 0.0708 µM [falling, partial curve, poor fit].

With `CCc1ccc(OCCCN=C(C)c2c(O)n(C)c(=O)n(C)c2=O)cc1` the AC50 [1] was 12.6 µM [rising, partial curve].

For `O=C(Oc1nsnc1N1CCOCC1)N(c1ccccc1)c1ccccc1`, the AC50 [2] was 11.2 µM [rising, partial curve] and the AC50 [1] was 11.2 µM [rising, single point].

In the case of `CC(C)(C)c1cc(C=C(C#N)C#N)cc(C(C)(C)C)c1O`, the AC50 [2] is reported as 1.12 µM [falling, full curve] and the AC50 [1] is reported as 1.12 µM [falling, full curve].

For `CCn1nc(-c2ccccc2)nc2c(=O)n(C)c(=O)nc1-2`, the AC50 [2] was 5.01 µM [falling, full curve, poor fit].

With `Cc1ccc(NP(=O)(Oc2ccccc2F)Oc2ccccc2F)cc1C` the AC50 [2] was 15.8 µM [falling, single point] and the AC50 [1] was 22.4 µM [falling, single point].

With `COc1ccc(C2NCc3ccc4c(c3-n3cccc32)OCO4)cc1O` (configuration not stated) the AC50 [1] was 2.24 µM [rising, partial curve].

In the case of `CCCCn1c(=O)c(C=Nc2cc([N+](=O)[O-])ccc2OC)c(O)n(CCCCl)c1=O`, the AC50 [1] is reported as 0.794 µM [falling, full curve, poor fit].

For `Cc1ccccc1CN1CCNCC1`, the AC50 [2] was 3.55 µM [rising, partial curve].

In the case of `Cc1ccc(-n2c(/C=C/c3ccccc3)nc3ccccc3c2=O)cc1C`, the AC50 [1] is reported as 0.224 µM [rising, partial curve, poor fit].

Source: PubChem BioAssay AID1487 (National Center for Advancing Translational Sciences (NCATS), 2009)
